Measurements from patent publication US10973776B1, “Loteprednol etabonate nanoparticles in thermoreversible gels for enhanced therapeutics” (University of South Florida, priority 2015, dated 2021).
“Also recorded” adds a separate entry of the source. For at least one compound, name, drawing or mass did not settle the structure.

How the values were obtained:
[1] = In vitro release of TA from NPs (dialysis) and TR gel in PBS; assay type: physicochemical; settings: 48 h, 37° C.
[2] = system: VEGF secretion in ARPE-19 cells; assay: VEGF secretion ELISA, TA formulations; assay type: cell-based, Human; settings: 100 μM
Method: Human retinal pigment epithelium, ARPE-19, cells (ATCC # CRL-2302) were grown in 1:1 Dulbecco's Modified Eagle's Medium and Ham's F12 Medium (Mediated, Inc., Manassas, Va.) with 10% fetal bovine serum and 100 Um′ penicillin/streptomycin (Sigma Aldrich, St. Louis, Mo.). The cultures were maintained in a humid environment at 5% CO2 and 37° C. ARPE-19 cells were seeded onto 24-well plates at 5×10^4 cells/ml and allowed to grow until confluence. On the day of study, cell culture media were replaced with 1% FBS experimental media and allowed to remain in quiescence for 12 h. The cellular monolayers were incubated with varying treatment concentrations of free TA solution (1, 10 and 100 μM), TA NPs (10 and 100 μM) and TA NP-TR gel (10 and 100 μM). Culture media were collected at 12 and 72 h. Secreted VEGF in collected culture media was quantified by the ELISA method (Human VEGFA ELISA kit, Thermo Scientific, Waltham, Mass.). The cell protein content was assayed using the BCA protein assay kit after lysing the cells, and VEGF secretion was normalized to total protein. Samples were read using the Synergy H4 plate reader (Biotek Industries, Inc., Winooski, Vt.) with absorbance at 450 nm minus absorbance at 550 nm.

CC1(C)O[C@@H]2C[C@H]3[C@@H]4CCC5=CC(=O)C=C[C@]5(C)[C@@]4(F)[C@@H](O)C[C@]3(C)[C@]2(C(=O)CO)O1 [free TA, Triamcinolone acetonide]
cumulative release of TA [1]: fully released; also recorded: completely released | suppression of VEGF secretion ([2]; 12 h): significantly reduced VEGF secretion; also recorded: significantly reduce VEGF expression | suppression of VEGF secretion ([2]; 72 h): unable to significantly reduce VEGF secretion
